Experimental data published in PMC6176938.
Read-outs that look alike come from different tables or passages of the source. Results are given in words; binding and its absence hold for the method and conditions named. Binding seen in cells or lysates may run through a third protein. These calls come from enrichment with a bait or labelling near it, and not all partners need be listed. For part of these data: A no says only that the protein was not detected with the bait. Where a sequence is shown, tags or fusion partners need not be part of it.

By UniProt entry, the sequences of proteins in these tests, tags left out.
UniProt Q24311: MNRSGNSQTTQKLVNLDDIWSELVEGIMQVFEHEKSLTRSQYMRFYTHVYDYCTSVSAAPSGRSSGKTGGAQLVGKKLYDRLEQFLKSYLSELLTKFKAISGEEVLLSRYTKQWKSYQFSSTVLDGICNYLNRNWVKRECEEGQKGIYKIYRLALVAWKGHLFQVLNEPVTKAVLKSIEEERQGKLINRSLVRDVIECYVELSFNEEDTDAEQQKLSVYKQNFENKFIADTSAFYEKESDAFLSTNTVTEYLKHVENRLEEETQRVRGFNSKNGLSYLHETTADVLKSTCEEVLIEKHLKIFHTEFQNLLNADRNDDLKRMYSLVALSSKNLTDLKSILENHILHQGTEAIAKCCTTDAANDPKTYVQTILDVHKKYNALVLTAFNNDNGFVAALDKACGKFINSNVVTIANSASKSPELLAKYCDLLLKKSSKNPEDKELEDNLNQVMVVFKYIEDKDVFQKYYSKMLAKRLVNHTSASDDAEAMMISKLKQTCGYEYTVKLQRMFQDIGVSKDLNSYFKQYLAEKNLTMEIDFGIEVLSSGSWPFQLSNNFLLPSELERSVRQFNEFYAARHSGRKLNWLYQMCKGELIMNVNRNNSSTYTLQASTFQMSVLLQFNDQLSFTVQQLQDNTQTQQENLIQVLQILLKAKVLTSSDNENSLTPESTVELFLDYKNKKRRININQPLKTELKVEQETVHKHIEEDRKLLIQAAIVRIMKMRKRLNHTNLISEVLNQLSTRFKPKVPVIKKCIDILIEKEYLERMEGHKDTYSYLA
UniProt Q9Y0H4: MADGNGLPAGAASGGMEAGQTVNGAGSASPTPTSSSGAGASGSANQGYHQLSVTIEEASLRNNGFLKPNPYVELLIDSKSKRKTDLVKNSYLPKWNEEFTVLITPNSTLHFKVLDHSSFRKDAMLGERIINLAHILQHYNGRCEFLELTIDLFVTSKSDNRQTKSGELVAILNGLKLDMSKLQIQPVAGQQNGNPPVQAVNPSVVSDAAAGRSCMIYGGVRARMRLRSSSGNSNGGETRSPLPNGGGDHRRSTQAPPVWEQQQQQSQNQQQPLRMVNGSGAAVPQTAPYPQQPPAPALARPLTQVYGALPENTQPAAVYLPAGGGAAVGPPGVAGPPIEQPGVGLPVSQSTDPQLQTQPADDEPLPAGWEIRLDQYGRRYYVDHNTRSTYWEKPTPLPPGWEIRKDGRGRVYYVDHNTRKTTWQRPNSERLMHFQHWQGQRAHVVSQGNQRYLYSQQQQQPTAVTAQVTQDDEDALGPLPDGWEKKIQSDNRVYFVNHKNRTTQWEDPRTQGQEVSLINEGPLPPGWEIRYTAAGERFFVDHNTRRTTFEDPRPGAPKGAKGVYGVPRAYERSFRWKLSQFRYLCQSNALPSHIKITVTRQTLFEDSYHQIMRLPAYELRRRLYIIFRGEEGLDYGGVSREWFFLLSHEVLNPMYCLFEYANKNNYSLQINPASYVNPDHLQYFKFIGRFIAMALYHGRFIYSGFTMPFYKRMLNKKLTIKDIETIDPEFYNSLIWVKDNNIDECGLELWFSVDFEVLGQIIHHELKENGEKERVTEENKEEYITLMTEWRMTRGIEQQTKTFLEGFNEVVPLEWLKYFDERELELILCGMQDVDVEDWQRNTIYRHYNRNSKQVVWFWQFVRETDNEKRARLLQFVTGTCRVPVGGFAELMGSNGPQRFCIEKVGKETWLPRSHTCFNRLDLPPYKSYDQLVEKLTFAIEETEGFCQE

T1: GST-Arl8Δ17 Q75L (GTP-locked form of Drosophila Arl8) (Drosophila melanogaster) (UniProt Q9VHV5)
T1 sequence: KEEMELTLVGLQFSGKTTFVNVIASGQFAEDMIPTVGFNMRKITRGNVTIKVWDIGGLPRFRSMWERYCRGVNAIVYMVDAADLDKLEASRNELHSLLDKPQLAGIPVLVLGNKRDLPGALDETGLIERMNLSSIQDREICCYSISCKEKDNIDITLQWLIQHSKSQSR

T2: GST-Arl8Δ17 T34N (GDP-locked form of Drosophila Arl8) (Drosophila melanogaster) (UniProt Q9VHV5)
T2 sequence: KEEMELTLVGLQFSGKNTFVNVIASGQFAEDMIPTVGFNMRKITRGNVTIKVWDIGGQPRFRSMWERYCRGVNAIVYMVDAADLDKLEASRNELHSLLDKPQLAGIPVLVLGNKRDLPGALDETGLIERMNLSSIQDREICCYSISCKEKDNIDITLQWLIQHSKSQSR


Key:
Assay in all cases: affinity purification with mass spectrometry; GST-Arl8Δ17 (Q75L or T34N) on Glutathione-Sepharose beads; clarified S2 cell cytosol prepared without detergent (20 mM Tris-HCl pH 8, 110 mM KCl, 5 mM MgCl2, 5 mM β-mercaptoethanol), with GDP or GTPγS, 4°C; eluted with high salt and the opposite nucleotide; only the target purified
[1] = molecular target: T1, GST-Arl8Δ17 Q75L (GTP-locked form of Drosophila Arl8) (Drosophila melanogaster)
[2] = molecular target: T1, GST-Arl8Δ17 Q75L (GTP-locked form of Drosophila Arl8) (Drosophila melanogaster); remark: listed apart in the source
[3] = molecular target: T2, GST-Arl8Δ17 T34N (GDP-locked form of Drosophila Arl8) (Drosophila melanogaster)

binding [1]	binding [2]	binding [3]	Molecule
binds			Acetyl-CoA carboxylase (ACC) (enzyme)
binds			Cullin 1 (Cul1) (from UniProt Q24311 1-774)
binds			Suppressor of deltex [Su(dx)] (from UniProt Q9Y0H4 1-949)
binds			Fatty acid synthase (FAS) (enzyme)
	binds		Vps16A (protein, UniProt Q9VHG1 1-833) MPIMYNTGEWFKVRPDYYRKVELATPDWPLDLDLEYMWVEVAPYGGPLAVTRDPTKLVPVKGNARPMIRIFDTTGREMGHILWNHGKLIAMGWSDMEELICIQENATVFVYDMFGREKESYSIGDEASVTKIVEGKVFQSSAGTGVAVMTTSGRVFLKQNSSKTERKLPDIPNSSMNCSCWEIVTEGRNSYCLLGRDREVIKLFPGETVGTITANLFEKPHERIIKISVSYNHQHLALYTNTGLLWLGSVDMRQKYCEFDTGRKDMPLQMEWIMNSDNSEADAVVISYPSYLLIVNRNADRSDFPYDPVMFLVAEMDGVRIITQSSHEIIQRLPKCVENIFAVNSQEPASYLFEAQKKFEEKSYKSDEYLSMCREKIDLAVSECIEAASYEFCPETQKSLLRTAYFGKGFIRNHNPDEYMRIMRILRVLNTLRHERIAMPITFKQFSHLNTEVILSRLVFRKHYAIAIQVAKHLNLPESWILEHWAYHKVMNDPNDTEVARKITEKFKNPSVEGISFCNIASKAHQAGRDDLAIKLLELESRASLHVPLLLKMRKFDRAVGSATQSGDTELITQVLLEMKMHMMLSNLHMTIRDHPLALNIYKKIMRESNRAGLYGIYNTEDDQKAIAEYHFQNAIETEGLESNLSMIGNAYAQGRCTLEAELCADTSRLIKLQKTLSTKYNVSLNGLSIHETIQELLLIGELKEAERIRSEFKVPDRRFWWLRILTLSSQHKWEELEKLAKSKKSPIGYDPFVEVCLKQDNVMEARKYIPRCRDNRRVVWYMRANLFNEAIDSAFEQRDVHSLFELQKNQAIVNNGTLLSKVCDCIAMLEGK
	binds	no binding	Deep orange (Vps18) (protein, UniProt Q24314 1-1002) MDTSMPNQPKFLPRIEHNSSGATANSYVATASGNPFETDEEDEIFSRHKMVLRVPSNCTGDLMHLAVSRNWLVCLLGTPERTTLLRFFLPRAIPPGEAVLEKYLSGSGYKITRMFLDPTGHHIIIALVPKSATAGVSPDFLYIHCLESPQAQQLKVRRIEKFKDHEITAVAFNPYHGNESSTGPILLGTSRGLIFETELNPAADGHVQRKQLYDLGLGRPKYPITGLKLLRVPNSSRYIIVVTSPECIYTFQETLKAEERSLQAIFAGYVSGVQEPHCEERKTDLTFSQLRFFAPPNSKYPKQWAWLCGEGIRVGELSIEANSAATLIGNTLINLDFEKTMHLSYGERRLNTPKAFVLTEYHAVLLYADHVRAICLLNQEQVYQEAFDEARVGKPLSIERDELTGSIYVYTVKTVFNLRVTREERNVWRIYLDKGQYELATAHAAEDPEHLQLVLCQRADAAFADGSYQVAADYYAETDKSFEEVCLKFMVLPDKRPIINYVKKRLSRVTTKPMETDELDEDKMNIIKALVIWLIDLYLIQINMPDKDEEWRSSWQTEYDEFMMEAHVLSCTRQNRETVRQLIAEHADPRNMAQFAIAIGDYDEVVAQQLKAECYAEALQTLINQRNPELFYKYAPELITRLPKPTVDALMAQGSRLEVEKLVPTLIIMENREQREQTQRYLEFAIYKLNTTNDAIHNFLLHLYAEHEPKLLMKYLEIQGRDESLVHYDIYYAHKVCTDLDVKEARVFLECMLRKWISAVDLALTFDMKLAKETASRPSDSKIRRKLWLRIAYHDIKGTNDVKKALNLLKECDLLRIEDLLPFFADFEKIDNFKEAICDALRDYNQRIQELQREMAETTEQTDRVTAELQQLRQHSLTVESQDTCEICEMMLLVKPFFIFICGHKFHSDCLEKHVVPLLTKEQCRRLGTLKQQLEAEVQTQAQPQSGALSKQQAMELQRKRAALKTEIEDILAADCLFCGLLISTIDQPFVDDWEQVNVEWE
	binds	no binding	Vps11 (protein, UniProt Q8SX81 1-830) MDISVFEWKKVDLFNIIVVPFVKIPNTAEISCYCFPESKSSTEERNIKLVICDKNRNILIYLSNWECITFKSPSTRKAIALCSLTSNNSLATVTPDINNGIHIDIFDLNRLTKKQAAPIIASAYTQPSSTPLCLNADVIDDKLFALAIGLGNGDILLHYGKITKNFSANIRQHTVSGNAVNGIHFDFKTQPLDTTQIMFVTCVQGVYCFMLKEKCIMDTKFVLDNDKGNLNYRSIMCKAGGGEINDSMLVVGRADAVYCYTPEGRGPCFAIEGAKECLAWVGHYLIVGVKNSNLKQNATTLIVLDTENKIIVFQRQFQELFYVISENNFCYIVTNSGDTDACNMLMLEKNSIDVNIRLLVEKHMYNIALRLLHREGYTSSPETALVRFQYGNHLLQKGDFSRATQEFIKTIGFIKPYAVISKLLYSRYNTYLLNYLTEWKKKNESSSCHTRLIECCIKRDQIEHEMQQDDFKHYKSPAKIKHLATLSKMYFACTPSNQVPVEEEHLLHQLLEYGPASLAVDLTTYLNNITFENVKESKNILSFCSILADHNDYCAKMLAKIIEAFPVCDEKLLFYLLVFYFKLWRLDKVTSSFVSDFIKTHSLRMDKTIIVSRLYTFFNVTQRIHGHQKNTGTLHNETIDKCIENLIKNNPDVALNENLSKRSFLMMLKSSCSTEEIKAIKIKPIFKDRLLRSIVDSANELKLVENFNEKIKRSRSMLSLYTNNPIEFRNDKCDICREMLSMQSIYFLCQHSFHEECLNYKSTKRQEKFLCIICKTRNLLSPKHSSNFSCDSSDTIAVLAKIVSIGNKLETKLMIRGRQKSDGVTCNPFN
	binds	no binding	Vps39 (protein, UniProt Q9VEA2 1-876) MHQAYSVHSILKQGVQIESIAAYGNHVILGTRSGQLIMYSVDEETGVDMRMFNKNFSRKPITQMEVIASENLLFVLTDLQVQVCDIRRIESNFAFMHSAPDTKGCTLFTMDVDTPKSTTGRVATVIRVCCAIRRRLVFFFWKEDKLNSLELIIELSDVPRTLCWVGHAVCVGFKDEYVVYDISGKAPKKHNLFLTSSSISRDPCICLIRNNMLGISKDSYLVVVDPSQYKESDGINNSTDVRPAAMDSNSSLTPLLWSSPLLDLVWDEPFAVGRVNNAIEVRSLVGKDTLVQTIPELQKTKFLVHADKGTIFAAATSELWCIRMVEIPIQRQQLLQQKKFQLAIELTQISDEPAADRAQTIRQIHMLYAKELFTNKEFSAAMKEFEKAAIDPYDVIRLFPNLVPEPKPGTEDVTVPTSSTPALEDSDLENAYLALIEYLAWARQREVVKLRDTKSSSKSLLEIIDTTLLKCYLQTNDSLVAPLLRLNQCHLEESEKTLKKHNKISELIILYQMKGKHKEALKLLREQASIEGSVLQGRKRTIRYLQELGGDHLPLIFEFADWVLNDNPEEGLTIFTDELIEVESLPRAKVLDFFISKHKALVIPYLEHVITEWKDGNTLLHNVLLKQYREKVQRLLAQQEKGEEVPELIPMRAKLYKMLEESNDYSPDRLLEEFPTNILLEERALILGRLKKHDNVLSIYIHVLGDVAKATAYAEAHYKEDKHIFHTLIKCILIPPTQPLYDGVPLHPDFSQVNREVALEILNTHATRIDPFEIFEHLPDDMPMPQLEKYLEKSIRKMMADKHEMQMMCGFLEAESTRLENALEEQRNISFELNESSVCSECKKRFQTQSAFVRYPNGHIVHLSCHDRLARAAAQQ
	binds		Carnation (Vps33) (protein, UniProt Q9Y1I2 1-617) MFPHLKGHGQRVNLQLLQEAACRELLQQLDRIEGSKVIVLDETMIGPLDLVTRPKLFADRGIRLLALKPELHLPREVANVVYVMRPRVALMEQLAAHVKAGGRAAAGRQYHILFAPRRSCLCVSQLEVSGVLGSFGNIEELAWNYLPLDVDLVSMEMPNAFRDVSVDGDTSSLYQAAVGLVQLQRLYGRIPKIYGKGEFAHRVWEHAKQLGRDERTLYNGDKGVVDQLILLDRSIDLLSPLATQLTYEGLIDEFYGIRQNKLTLPAENFPSDGALPGGGGSGPRVEESQSLLGDTEKKTILLHSGEQLYAELRNKHFNEVTKLLARKAREIHVQMHATSQDKSVQEIKSFVENLLPQLMAQKKATSEHTAIAGLLHEQVNAVRFADDLAAEQEFMVCADIDKPSAYIEDLIACRVELNRVLRLICMQCHAASGFKEKLLNHYKRELVHVYGLEVLLTISNLEKSGLLHLQTESRAYSVLRKTLHLTVDDNVEIEPKDISYVHSFYAPLTARIVEHSLKPLGWQTLKSQINNLPGPTFEDFQAQLVGIGGRHTVTTVSEGSLLNVPRVVLVCFVGGCTFAEIAALRFLAAQEDNNVEFLIATTKVVNKHSFLDSLMSS
